Measured values reported in the supplement of paper PMC10849652.
The other results are listed elsewhere or left out.

Chains of the proteins cited; added tags and fusions are not shown. Lines headed by an entry give the natural chain unless they say otherwise; changes in a name come on top.
UniProt Q12792, whole entry, looked up: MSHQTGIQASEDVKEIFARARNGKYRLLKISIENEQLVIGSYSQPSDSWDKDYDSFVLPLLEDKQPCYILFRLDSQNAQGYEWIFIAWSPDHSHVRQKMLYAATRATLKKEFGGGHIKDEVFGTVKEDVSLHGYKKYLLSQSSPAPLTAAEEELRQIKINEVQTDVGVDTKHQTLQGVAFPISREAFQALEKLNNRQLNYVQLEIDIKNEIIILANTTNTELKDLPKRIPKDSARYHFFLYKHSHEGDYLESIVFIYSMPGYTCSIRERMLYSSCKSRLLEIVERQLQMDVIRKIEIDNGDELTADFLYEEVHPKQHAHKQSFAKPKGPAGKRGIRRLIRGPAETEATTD
UniProt Q9NY65, whole entry, looked up: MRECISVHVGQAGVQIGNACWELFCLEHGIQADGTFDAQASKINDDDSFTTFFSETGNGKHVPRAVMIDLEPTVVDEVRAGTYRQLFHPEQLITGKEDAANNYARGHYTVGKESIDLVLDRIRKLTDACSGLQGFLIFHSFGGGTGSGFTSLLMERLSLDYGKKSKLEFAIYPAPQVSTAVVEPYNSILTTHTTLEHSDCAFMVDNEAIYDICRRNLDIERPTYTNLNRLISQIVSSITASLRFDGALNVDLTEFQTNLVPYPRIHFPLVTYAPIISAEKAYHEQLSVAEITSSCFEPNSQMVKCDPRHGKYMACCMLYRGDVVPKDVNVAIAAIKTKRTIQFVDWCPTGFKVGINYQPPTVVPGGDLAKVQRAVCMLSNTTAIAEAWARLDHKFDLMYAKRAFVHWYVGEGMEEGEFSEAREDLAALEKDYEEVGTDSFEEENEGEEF
UniProt P68036, whole entry, looked up: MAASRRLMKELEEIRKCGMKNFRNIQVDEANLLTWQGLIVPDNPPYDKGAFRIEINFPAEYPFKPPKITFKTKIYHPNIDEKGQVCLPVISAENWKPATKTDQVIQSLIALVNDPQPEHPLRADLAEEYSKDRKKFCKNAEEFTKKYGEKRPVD
UniProt O95801: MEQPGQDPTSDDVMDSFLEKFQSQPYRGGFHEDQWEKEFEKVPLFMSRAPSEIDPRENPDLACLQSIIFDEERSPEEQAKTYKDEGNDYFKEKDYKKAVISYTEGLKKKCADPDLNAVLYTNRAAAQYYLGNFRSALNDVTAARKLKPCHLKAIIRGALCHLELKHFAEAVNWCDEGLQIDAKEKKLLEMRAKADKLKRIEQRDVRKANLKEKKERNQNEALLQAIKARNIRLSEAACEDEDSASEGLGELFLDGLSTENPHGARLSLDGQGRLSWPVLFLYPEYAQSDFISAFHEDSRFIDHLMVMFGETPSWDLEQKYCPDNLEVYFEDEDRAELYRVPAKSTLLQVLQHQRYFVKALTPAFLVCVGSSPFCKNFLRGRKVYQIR
UniProt Q9UJT0: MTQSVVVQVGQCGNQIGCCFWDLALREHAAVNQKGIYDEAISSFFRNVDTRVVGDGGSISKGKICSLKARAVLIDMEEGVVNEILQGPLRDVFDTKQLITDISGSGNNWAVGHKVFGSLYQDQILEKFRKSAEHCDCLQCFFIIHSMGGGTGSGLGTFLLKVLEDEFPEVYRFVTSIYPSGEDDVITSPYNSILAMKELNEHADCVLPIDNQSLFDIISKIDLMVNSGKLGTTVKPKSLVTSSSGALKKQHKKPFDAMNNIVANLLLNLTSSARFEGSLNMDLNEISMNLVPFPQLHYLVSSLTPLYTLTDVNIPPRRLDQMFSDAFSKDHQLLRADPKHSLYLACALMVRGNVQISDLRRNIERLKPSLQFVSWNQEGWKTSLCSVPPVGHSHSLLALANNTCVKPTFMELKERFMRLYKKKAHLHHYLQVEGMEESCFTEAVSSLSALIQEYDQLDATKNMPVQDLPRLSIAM
UniProt Q13454: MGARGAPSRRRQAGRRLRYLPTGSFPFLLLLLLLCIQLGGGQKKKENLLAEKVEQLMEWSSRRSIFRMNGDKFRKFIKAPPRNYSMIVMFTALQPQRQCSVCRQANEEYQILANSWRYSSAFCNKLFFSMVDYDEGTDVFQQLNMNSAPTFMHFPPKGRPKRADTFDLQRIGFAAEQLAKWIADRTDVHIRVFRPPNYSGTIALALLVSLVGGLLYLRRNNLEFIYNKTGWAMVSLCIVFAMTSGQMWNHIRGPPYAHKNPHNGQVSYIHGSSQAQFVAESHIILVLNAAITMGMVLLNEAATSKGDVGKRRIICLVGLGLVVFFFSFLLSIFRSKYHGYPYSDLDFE
UniProt O43156, whole entry, looked up: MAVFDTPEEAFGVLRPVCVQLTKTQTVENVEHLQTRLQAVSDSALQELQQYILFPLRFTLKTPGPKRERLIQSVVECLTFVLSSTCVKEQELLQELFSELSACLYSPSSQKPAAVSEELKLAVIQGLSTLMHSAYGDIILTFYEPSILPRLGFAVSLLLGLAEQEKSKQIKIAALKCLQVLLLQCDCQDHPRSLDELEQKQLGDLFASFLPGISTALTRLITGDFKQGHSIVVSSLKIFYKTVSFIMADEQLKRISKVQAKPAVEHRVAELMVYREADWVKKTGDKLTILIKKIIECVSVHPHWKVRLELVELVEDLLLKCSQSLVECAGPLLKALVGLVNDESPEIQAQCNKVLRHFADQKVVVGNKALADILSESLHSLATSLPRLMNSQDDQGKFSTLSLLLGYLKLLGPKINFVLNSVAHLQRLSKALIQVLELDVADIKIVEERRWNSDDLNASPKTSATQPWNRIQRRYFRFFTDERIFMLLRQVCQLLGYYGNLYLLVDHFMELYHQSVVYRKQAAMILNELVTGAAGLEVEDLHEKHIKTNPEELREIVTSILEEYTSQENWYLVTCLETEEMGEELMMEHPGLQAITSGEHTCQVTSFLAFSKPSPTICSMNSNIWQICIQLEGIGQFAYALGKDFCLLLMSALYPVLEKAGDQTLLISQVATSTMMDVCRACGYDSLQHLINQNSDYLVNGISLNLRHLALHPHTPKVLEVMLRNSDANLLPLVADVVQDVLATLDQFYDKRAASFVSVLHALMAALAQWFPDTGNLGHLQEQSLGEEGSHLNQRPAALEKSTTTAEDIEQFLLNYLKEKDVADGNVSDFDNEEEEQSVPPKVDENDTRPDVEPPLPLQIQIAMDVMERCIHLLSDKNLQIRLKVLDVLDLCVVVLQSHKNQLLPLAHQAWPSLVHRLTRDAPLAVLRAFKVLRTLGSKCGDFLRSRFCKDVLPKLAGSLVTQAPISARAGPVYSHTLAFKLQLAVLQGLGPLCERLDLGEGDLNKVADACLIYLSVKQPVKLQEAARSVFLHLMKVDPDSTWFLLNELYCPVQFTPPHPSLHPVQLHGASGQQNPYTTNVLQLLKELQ
UniProt A6NHL2: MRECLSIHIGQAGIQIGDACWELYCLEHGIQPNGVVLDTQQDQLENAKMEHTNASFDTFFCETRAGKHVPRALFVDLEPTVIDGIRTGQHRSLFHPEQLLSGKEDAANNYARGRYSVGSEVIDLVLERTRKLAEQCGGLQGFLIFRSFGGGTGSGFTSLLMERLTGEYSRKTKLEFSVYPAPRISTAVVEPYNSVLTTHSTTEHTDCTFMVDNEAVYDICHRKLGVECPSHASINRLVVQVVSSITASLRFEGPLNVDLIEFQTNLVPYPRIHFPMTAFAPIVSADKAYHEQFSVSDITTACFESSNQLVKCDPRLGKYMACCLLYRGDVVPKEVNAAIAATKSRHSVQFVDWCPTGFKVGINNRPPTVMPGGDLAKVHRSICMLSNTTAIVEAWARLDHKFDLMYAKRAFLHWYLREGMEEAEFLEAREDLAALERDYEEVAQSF
UniProt Q8NBM4: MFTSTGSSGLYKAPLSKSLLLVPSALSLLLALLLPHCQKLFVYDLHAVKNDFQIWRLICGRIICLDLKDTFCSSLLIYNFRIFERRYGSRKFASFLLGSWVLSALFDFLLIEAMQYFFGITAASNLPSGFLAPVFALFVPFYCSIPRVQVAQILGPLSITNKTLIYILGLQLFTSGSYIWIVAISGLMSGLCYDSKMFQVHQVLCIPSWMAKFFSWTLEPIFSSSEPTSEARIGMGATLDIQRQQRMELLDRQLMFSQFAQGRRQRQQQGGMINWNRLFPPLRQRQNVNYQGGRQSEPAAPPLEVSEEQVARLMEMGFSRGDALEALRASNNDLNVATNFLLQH
UniProt Q01081: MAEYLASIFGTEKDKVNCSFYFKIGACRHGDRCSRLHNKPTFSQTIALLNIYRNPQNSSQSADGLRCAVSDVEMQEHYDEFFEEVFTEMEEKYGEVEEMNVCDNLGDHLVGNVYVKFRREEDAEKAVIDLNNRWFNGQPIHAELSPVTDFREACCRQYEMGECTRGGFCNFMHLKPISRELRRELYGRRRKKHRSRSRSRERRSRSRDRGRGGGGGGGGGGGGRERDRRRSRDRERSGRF
UniProt Q9H3M7: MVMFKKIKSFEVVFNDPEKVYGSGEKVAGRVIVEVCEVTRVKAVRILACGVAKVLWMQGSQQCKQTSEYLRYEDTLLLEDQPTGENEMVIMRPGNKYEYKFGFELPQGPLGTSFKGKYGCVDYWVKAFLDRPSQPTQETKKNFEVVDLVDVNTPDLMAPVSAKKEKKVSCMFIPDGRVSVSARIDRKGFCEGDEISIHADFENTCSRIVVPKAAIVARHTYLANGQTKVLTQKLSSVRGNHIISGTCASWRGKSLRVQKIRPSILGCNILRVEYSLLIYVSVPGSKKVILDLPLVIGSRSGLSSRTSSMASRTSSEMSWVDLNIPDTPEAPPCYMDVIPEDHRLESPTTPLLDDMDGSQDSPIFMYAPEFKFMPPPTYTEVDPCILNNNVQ
UniProt P04350, whole entry, looked up: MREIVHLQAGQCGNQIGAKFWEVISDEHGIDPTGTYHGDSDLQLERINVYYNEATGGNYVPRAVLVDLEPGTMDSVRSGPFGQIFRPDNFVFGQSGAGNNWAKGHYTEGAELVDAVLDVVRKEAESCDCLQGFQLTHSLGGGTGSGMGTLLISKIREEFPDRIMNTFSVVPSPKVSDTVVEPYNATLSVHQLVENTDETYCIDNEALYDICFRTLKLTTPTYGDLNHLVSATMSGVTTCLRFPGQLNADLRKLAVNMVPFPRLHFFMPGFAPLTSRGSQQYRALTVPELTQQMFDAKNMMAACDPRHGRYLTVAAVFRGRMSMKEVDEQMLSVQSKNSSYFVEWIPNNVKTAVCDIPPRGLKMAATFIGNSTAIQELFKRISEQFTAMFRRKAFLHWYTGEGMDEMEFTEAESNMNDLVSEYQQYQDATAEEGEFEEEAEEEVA
UniProt Q9UGJ1, whole entry, looked up: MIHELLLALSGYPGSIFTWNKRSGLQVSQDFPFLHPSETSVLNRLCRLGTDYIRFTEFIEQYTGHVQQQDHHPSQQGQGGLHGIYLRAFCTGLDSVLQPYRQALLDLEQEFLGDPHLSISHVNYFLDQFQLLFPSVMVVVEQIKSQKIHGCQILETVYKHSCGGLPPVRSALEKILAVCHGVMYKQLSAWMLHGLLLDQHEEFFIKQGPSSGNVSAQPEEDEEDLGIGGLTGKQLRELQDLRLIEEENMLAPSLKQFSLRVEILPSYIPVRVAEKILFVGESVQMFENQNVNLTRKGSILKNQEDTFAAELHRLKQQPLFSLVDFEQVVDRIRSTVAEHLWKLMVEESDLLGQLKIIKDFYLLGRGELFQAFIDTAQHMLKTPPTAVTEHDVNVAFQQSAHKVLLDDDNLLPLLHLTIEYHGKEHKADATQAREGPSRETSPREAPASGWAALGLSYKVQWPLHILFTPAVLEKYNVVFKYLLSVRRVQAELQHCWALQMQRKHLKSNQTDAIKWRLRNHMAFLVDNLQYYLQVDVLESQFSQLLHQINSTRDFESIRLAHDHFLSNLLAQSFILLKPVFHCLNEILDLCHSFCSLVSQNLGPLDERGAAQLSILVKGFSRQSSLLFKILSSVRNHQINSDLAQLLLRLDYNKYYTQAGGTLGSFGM
UniProt Q9Y385: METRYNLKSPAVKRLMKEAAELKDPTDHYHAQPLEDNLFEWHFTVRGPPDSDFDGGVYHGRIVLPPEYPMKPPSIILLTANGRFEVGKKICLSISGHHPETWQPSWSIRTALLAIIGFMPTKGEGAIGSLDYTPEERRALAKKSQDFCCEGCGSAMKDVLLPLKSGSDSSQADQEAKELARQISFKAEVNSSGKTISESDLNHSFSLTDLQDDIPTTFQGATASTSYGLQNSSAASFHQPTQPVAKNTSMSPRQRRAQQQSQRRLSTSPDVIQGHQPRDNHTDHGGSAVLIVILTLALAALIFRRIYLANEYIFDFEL
UniProt P60604: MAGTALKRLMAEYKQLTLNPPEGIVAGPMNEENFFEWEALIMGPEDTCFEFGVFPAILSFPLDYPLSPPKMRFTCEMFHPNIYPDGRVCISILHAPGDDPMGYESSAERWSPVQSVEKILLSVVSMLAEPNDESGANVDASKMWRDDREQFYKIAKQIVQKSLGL

Legend:
Test in all cases: log2 fold change, soluble protein after heating vs DMSO (PISA); higher = thermal stabilisation; K562 cells, 10 uM, 30 min; active = over 0.2 and 3.5 SD of the protein, either way, in both replicates (recomputed)
[1] = compound: CC[C@@H]1C(=O)N(C)c2cnc(Nc3ccc(C(=O)NC4CCN(C)CC4)cc3OC)nc2N1C1CCCC1
How it was run: (§1)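 Quantification of soluble protein used TMTpro 16plex LC-MS/MS, with channel sums equalised. Samples were the supernatant after 21,000xg for 90 min of pooled aliquots from K562 cells (2×10^6 cells/mL) treated with 10 μM compound for 30 min, heated for 3 min over 48°C-58°C, and extracted in PBS with 0.5% NP-40 at 4°C. Values, from duplicates, describe thermal stability against control samples on a log2 fold-change scale.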

volasertib = compound: CC[C@@H]1C(=O)N(C)c2cnc(Nc3ccc(C(=O)N[C@H]4CC[C@H](N5CCN(CC6CC6)CC5)CC4)cc3OC)nc2N1C(C)C [volasertib]
How it was run: as §1

[2] = compound: CC[C@H](C)N1C=C(C2=C(C=C(C=C21)C3=CN=C(C=C3)N4CCNCC4)C(=O)NCC5=C(C=C(NC5=O)C)C)C
How it was run: as §1

epoxomicin = compound: CC[C@H](C)[C@@H](C(=O)N[C@@H]([C@@H](C)O)C(=O)N[C@@H](CC(C)C)C(=O)[C@]1(CO1)C)NC(=O)[C@H]([C@@H](C)CC)N(C)C(=O)C [epoxomicin]
How it was run: as §1

[3] = compound: CCn1c(C(=O)N(C2CC2)C2CC2)cc2c3c(ncn3C)c(Nc3cc(C)n(C)n3)nc21
How it was run: as §1

[4] = compound: CCn1cc(-c2ccnc3[nH]c(-c4cccc(CN(C)C)c4)cc23)c(-c2ccc(NC(=O)N(C)C)cc2)n1
How it was run: as §1

[5] = compound: CN(C)CC(=O)Nc1ccc2[nH]c(=O)c3ccccc3c2c1
How it was run: as §1

rosiglitazone = compound: CN(CCOC1=CC=C(C=C1)C[C@H]2C(=O)NC(=O)S2)C3=CC=CC=N3 (racemic) [rosiglitazone]
How it was run: as §1

[6] = compound: CN1C2=C(C3=C1C(=O)N(N=C3)CC4=CC(=CC=C4)N)SC(=C2)S(=O)C
How it was run: as §1

[7] = compound: CN1CCC(CNc2ccc3ncc(-c4cccc(OC(F)(F)F)c4)n3n2)CC1
How it was run: as §1

saracatinib = compound: CN1CCN(CCOc2cc(OC3CCOCC3)c3c(Nc4c(Cl)ccc5c4OCO5)ncnc3c2)CC1 [saracatinib]
How it was run: as §1

sotrastaurin = compound: CN1CCN(c2nc(C3=C(c4c[nH]c5ccccc45)C(=O)NC3=O)c3ccccc3n2)CC1 [sotrastaurin]
How it was run: as §1

alvocidib = compound: CN1CC[C@H](c2c(O)cc(O)c3c(=O)cc(-c4ccccc4Cl)oc23)[C@H](O)C1 [alvocidib]
How it was run: as §1

Tubastatin A = compound: CN1CCc2c(c3ccccc3n2Cc2ccc(C(=O)NO)cc2)C1 [Tubastatin A]
How it was run: as §1

[8] = compound: CNC(=O)C1=CC=CC=C1NC2=NC(=NC=C2Cl)NC3=C(C=C(C=C3)N4CCOCC4)OC
How it was run: as §1

defactinib = compound: CNC(=O)c1ccc(Nc2ncc(C(F)(F)F)c(NCc3nccnc3N(C)S(C)(=O)=O)n2)cc1 [defactinib]
How it was run: as §1

rucaparib = compound: CNCc1ccc(-c2[nH]c3cc(F)cc4c3c2CCNC4=O)cc1 [rucaparib]
How it was run: as §1

[9] = compound: CNc1nc(-c2ccc3c(N)n[nH]c3c2)cc(N2C[C@@H](C(=O)NC3CCCCC3)CC[C@H]2C)n1
How it was run: as §1

encorafenib = compound: COC(=O)N[C@@H](C)CNc1nccc(-c2cn(C(C)C)nc2-c2cc(Cl)cc(NS(C)(=O)=O)c2F)n1 [encorafenib]
How it was run: as §1

[10] = compound: COC(=O)[C@H](CCSC)NC(=O)C1=C(C=C(C=C1)NC[C@H](CS)N)C2=CC=CC=C2
How it was run: as §1

Measured: log2 fold change

TWF1 (UniProt Q12792)
inactive: [1] 0.019 | volasertib 0.052 | [2] 0.033 | epoxomicin -0.013 | [3] 0.037 | [4] -0.044 | [5] -0.07 | rosiglitazone 0.014 | [6] 0.037 | [7] 0.041 | saracatinib -0.025 | sotrastaurin 0.015 | alvocidib -0.094 | Tubastatin A -0.018 | [8] 0.05 | defactinib -0.103 | rucaparib -0.002 | [9] 0.013 | encorafenib -0.012 | [10] 0.09

TUBA8 (UniProt Q9NY65)
inactive: [1] 0.532 | volasertib 0.145 | [2] -0.08 | epoxomicin -0.436 | [3] -0.146 | [4] 0.368 | [5] -0.164 | rosiglitazone -0.152 | [7] 0.389 | sotrastaurin 0 | alvocidib 0.652 | Tubastatin A 0.253 | [8] -0.348 | defactinib 0.517 | rucaparib 0.143 | encorafenib 0.434 | [10] 0.039

UBE2L3 isoform 3 (UniProt P68036)
inactive: [1] -0.025 | volasertib 0.145 | [2] 0.007 | epoxomicin 0.04 | [3] 0.026 | [4] 0.01 | [5] -0.03 | rosiglitazone 0.017 | [6] -0.05 | [7] -0.052 | saracatinib 0.006 | sotrastaurin 0.054 | alvocidib -0.036 | Tubastatin A -0.009 | [8] -0.027 | defactinib 0.004 | rucaparib -0.008 | [9] -0.025 | encorafenib -0.048 | [10] 0.048

TTC4 (UniProt O95801)
inactive: [1] -0.173 | [2] 0.103 | epoxomicin 0.054 | [4] -0.039 | [5] 0.061 | [6] -0.02 | [7] -0.11 | saracatinib -0.09 | sotrastaurin -0.11 | Tubastatin A 0.055 | [8] 0.078 | defactinib -0.169 | rucaparib 0.04 | [9] 0.051 | encorafenib 0.049 | [10] -0.055
active: volasertib -0.316

Random excerpt: 2 records from the list.
UBE2L3 isoform 3 (UniProt P68036)
inactive: [1] -0.025 | volasertib 0.145 | [2] 0.007 | epoxomicin 0.04 | [3] 0.026 | [4] 0.01 | [5] -0.03 | rosiglitazone 0.017 | [6] -0.05 | [7] -0.052 | saracatinib 0.006 | sotrastaurin 0.054 | alvocidib -0.036 | Tubastatin A -0.009 | [8] -0.027 | defactinib 0.004 | rucaparib -0.008 | [9] -0.025 | encorafenib -0.048 | [10] 0.048

TTC4 (UniProt O95801)
inactive: [1] -0.173 | [2] 0.103 | epoxomicin 0.054 | [4] -0.039 | [5] 0.061 | [6] -0.02 | [7] -0.11 | saracatinib -0.09 | sotrastaurin -0.11 | Tubastatin A 0.055 | [8] 0.078 | defactinib -0.169 | rucaparib 0.04 | [9] 0.051 | encorafenib 0.049 | [10] -0.055
active: volasertib -0.316

Next part

TUBE1 (UniProt Q9UJT0)
inactive: [1] 0.091 | volasertib 0.099 | [2] -0.008 | epoxomicin 0.104 | [3] -0.009 | [4] 0.062 | [5] 0.028 | rosiglitazone -0.067 | [6] -0.015 | [7] -0.039 | saracatinib -0.002 | sotrastaurin 0.009 | alvocidib -0.001 | Tubastatin A 0.051 | [8] -0.028 | defactinib 0.037 | rucaparib 0.039 | [9] -0.019 | encorafenib -0.03 | [10] 0.046

TXNDC16 (UniProt Q9P2K2)
inactive: [1] 0 | volasertib -0.067 | [2] 0.001 | epoxomicin -0.075 | [3] -0.021 | [4] -0.07 | [5] 0.02 | [6] 0.067 | [7] 0.123 | saracatinib -0.117 | sotrastaurin -0.043 | alvocidib 0.099 | Tubastatin A 0.045 | [8] -0.015 | defactinib -0.038 | rucaparib -0.099 | [9] 0.009 | encorafenib 0.063 | [10] 0.034

TUSC3 isoform 2 (UniProt Q13454)
inactive: [1] 0.043 | volasertib 0.01 | [2] -0.002 | epoxomicin 0.003 | [3] 0.036 | [4] 0.079 | [5] -0.021 | rosiglitazone -0.009 | [6] 0.115 | [7] 0.023 | saracatinib -0.017 | sotrastaurin -0.065 | alvocidib 0.083 | Tubastatin A -0.018 | [8] 0.033 | defactinib 0.04 | rucaparib -0.047 | [9] -0.018 | encorafenib 0.115 | [10] 0.046

TTI1 (UniProt O43156)
active: volasertib -0.431
inactive: [1] -0.208 | [2] 0.08 | epoxomicin -0.024 | [4] -0.038 | [5] 0.048 | [6] 0.134 | [7] -0.134 | saracatinib -0.065 | sotrastaurin -0.128 | Tubastatin A -0.007 | [8] -0.058 | defactinib -0.046 | rucaparib 0.237 | [9] 0.053 | encorafenib 0.068 | [10] 0.004

TUBAL3 (UniProt A6NHL2)
active: rucaparib -0.51
inactive: [1] 0.144 | volasertib -0.497 | [2] -0.052 | epoxomicin -0.11 | [4] -0.013 | [5] -0.061 | [6] 0.03 | [7] -0.067 | saracatinib -0.074 | sotrastaurin -0.054 | Tubastatin A -0.003 | [8] -0.125 | defactinib -0.069 | [9] 0.067 | encorafenib 0.187 | [10] -0.057

UBAC2 (UniProt Q8NBM4)
inactive: [1] -0.019 | volasertib -0.129 | [2] -0.025 | epoxomicin -0.016 | [3] 0.014 | [4] -0.02 | [5] 0.664 | rosiglitazone -0.006 | [6] 0.102 | [7] -0.06 | saracatinib 0.108 | sotrastaurin -0.021 | alvocidib -0.061 | Tubastatin A 0.051 | [8] -0.02 | defactinib 0.063 | rucaparib 0.173 | [9] -0.148 | encorafenib 0.063 | [10] -0.053

TUBB6 (UniProt K7ES63)
inactive: [1] 0.085 | volasertib 0.13 | [2] -0.164 | epoxomicin -0.099 | [3] 0.107 | [5] 0.139 | rosiglitazone 0.331 | [6] 0.069 | saracatinib -0.263 | sotrastaurin -0.025 | alvocidib 0.109 | Tubastatin A -0.035 | [8] -0.015 | defactinib 0.104 | rucaparib -0.112 | [9] 0.044 | encorafenib -0.035 | [10] -0.051

U2AF1 isoform 2 (UniProt Q01081)
active: volasertib -0.57
inactive: [1] -0.217 | [2] 0.051 | epoxomicin -0.02 | [4] -0.015 | [5] 0.071 | [6] -0.021 | [7] -0.036 | saracatinib -0.027 | sotrastaurin -0.062 | Tubastatin A 0.042 | [8] -0.104 | defactinib -0.086 | rucaparib 0.045 | [9] -0.009 | encorafenib 0.041 | [10] -0.075

TXNIP (UniProt Q9H3M7)
inactive: [1] 0.112 | volasertib 0.021 | [2] 0.053 | epoxomicin 0.054 | [4] -0.066 | [5] -0.026 | [6] -0.07 | saracatinib -0.074 | sotrastaurin 0 | Tubastatin A 0.06 | [8] 0.179 | defactinib -0.085 | rucaparib -0.026 | [9] 0.243 | encorafenib 0.01 | [10] 0.07
active: [7] -0.793

TUT4 (UniProt Q5TAX3)
inactive: [1] -0.064 | volasertib -0.229 | [2] -0.15 | epoxomicin -0.219 | [4] 0.046 | [5] 0.018 | [7] -0.235 | saracatinib -0.089 | sotrastaurin 0.003 | Tubastatin A 0.073 | [8] -0.075 | defactinib -0.095 | rucaparib -0.001 | [9] -0.008 | encorafenib -0.144 | [10] 0.082
active: [6] 0.566

TUBB4A (UniProt P04350)
inactive: [1] 0.06 | volasertib 0.087 | [2] -0.076 | epoxomicin 0.351 | [3] 0.035 | [5] -0.034 | rosiglitazone -0.071 | [6] 0.008 | saracatinib 0.13 | sotrastaurin 0.019 | alvocidib -0.077 | Tubastatin A 0.03 | [8] -0.003 | defactinib -0.084 | rucaparib -0.071 | [9] -0.002 | encorafenib -0.074 | [10] 0.096

TUBGCP4 (UniProt Q9UGJ1)
inactive: [1] 0.123 | volasertib -0.071 | [3] -0.005 | rosiglitazone -0.034 | [6] 0.139 | saracatinib -0.115 | sotrastaurin -0.346 | alvocidib 0.034 | Tubastatin A 0.184 | [8] -0.047 | rucaparib 0.562 | [9] -0.014 | encorafenib 0.268

UBE2J1 (UniProt Q9Y385)
inactive: [1] -0.073 | volasertib -0.165 | [2] 0.07 | epoxomicin 0.248 | [4] 0.014 | [5] 0.01 | [6] -0.083 | [7] -0.006 | saracatinib 0.019 | sotrastaurin -0.016 | Tubastatin A 0.26 | [8] -0.046 | defactinib -0.133 | rucaparib 0.048 | [9] 0.204 | encorafenib 0.001 | [10] 0.035

UBE2G2 (UniProt P60604)
inactive: [1] -0.197 | volasertib -0.243 | [2] -0.024 | [3] 0.015 | [4] 0.059 | [5] 0.041 | rosiglitazone 0.043 | [6] -0.033 | [7] -0.244 | saracatinib -0.183 | sotrastaurin 0.036 | alvocidib -0.12 | Tubastatin A 0.076 | [8] -0.059 | defactinib -0.003 | rucaparib 0.025 | [9] 0.023 | encorafenib -0.024 | [10] -0.077
